# Data as given in PubChem BioAssay AID540256 (National Center for Advancing Translational Sciences (NCATS), 2011).
# Among all 300,000 compounds or so, about 3,700 (1.2%) were called active. This list was built around the results that the source calls inconclusive (neither active nor inactive); the mix of calls is not that of the screen. Calls come from the whole dose curve; tested in HEK293 cells. Potencies of inconclusive entries are doubtful fits and often do not repeat.
# Test: qHTS for Inhibitors of binding or entry into cells for Lassa Virus; note: nearly all actives have a fitted effect of over 50% in size
# Settings: Lassa virus pseudotype entry inhibition, cell reporter; activity change, negative = inhibition: at 37.9 µM (top of the series) unless noted
# % is set by controls: 0 for no effect and ±100 for the full control effect; potency is the fitted concentration of half-maximal effect.
Structure (SMILES),Potency,"activity change, negative = inhibition"
O=C(Nc1noc2ccccc12)c1c(F)cccc1F,"inconclusive: 3.98 µM [activator, full curve]",
COCCOc1ccc(C(F)(F)F)cc1Nc1nc2ccccc2o1,,inactive: -15.8%
Cc1nc([N+](=O)[O-])c(Br)n1CC(=O)c1cccc([N+](=O)[O-])c1,,inactive: 8.45% [at 46.1 µM]
COCCCNc1ncnc2c1sc1nc(-c3ccco3)c3c(c12)CC(C)(C)OC3,"inconclusive: 11.2 µM [inhibitor, partial curve, poor fit]",
O=C(c1cnccn1)N(Cc1cccs1)C1(C(=O)NC2CCCCC2)CCCCC1,"inconclusive: 1 µM [inhibitor, single point]",
COc1ccc(N/C=C2\CCOC2=O)cc1,,inactive: -2.01%
COc1ccc(Nc2nc3c([nH]2)c(=O)[nH]c(=O)n3C)cc1,,inactive: 18.5% [at 46.1 µM]
Cc1ccc(S(=O)(=O)N(CC(=O)N2CCc3ccccc3C2)c2ccc(C)c(C)c2)cc1,"inconclusive: 11.2 µM [inhibitor, partial curve, poor fit]",
CCOc1ccc(NC(=O)CCS(=O)(=O)c2ccc(Br)s2)cc1,"inconclusive: 0.891 µM [inhibitor, full curve, poor fit]",
Cc1nc2ccccc2n1CCN1CCOCC1,,inactive: -15.3% [at 46.1 µM]
OC(c1ccccc1)(c1ccccc1)C1CCN(C(=S)NC2CCCC2)CC1,"inconclusive: 35.5 µM [activator, single point]",
COc1ccc(N2CC(C(=O)N/N=C/c3ccc(C)cc3)CC2=O)cc1 (stereo not given),"inconclusive: 8.91 µM [inhibitor, partial curve, poor fit]",
COC(=O)c1sccc1S(=O)(=O)N(CC(=O)NCc1ccccc1)c1ccc(C)c(C)c1,"inconclusive: 35.5 µM [inhibitor, single point]",
c1ccc2[nH]c(SCc3ccc(-c4nnco4)cc3)nc2c1,"inconclusive: 5.62 µM [activator, single point]",
CCC(=O)N1CCc2cc(S(=O)(=O)NC(C(=O)NCCc3ccc(Cl)cc3)C(C)C)ccc21 (stereo not given),,inactive: 5.75% [at 46.1 µM]
CCN1/C(=C/C(=O)c2ccco2)Sc2ccccc21,,inactive: 0.279%
c1ccc(-c2oc3ncnc(NCCN4CCOCC4)c3c2-c2ccccc2)cc1,,inactive: -34.5%
O=C(Nc1ccc(-c2nc3ccccc3[nH]2)cc1)C1CCCO1 (stereo not given),"inconclusive: 6.51 µM [inhibitor, partial curve, poor fit]",
O=C(CCCc1ccccc1)N1CCc2ccccc21,"inconclusive: 29.1 µM [inhibitor, single point]",
O=C(CCCOc1ccc(Cl)cc1Cl)NCCCO,,inactive: 0.263%
CCNc1nc(C(=O)O)nc(N2CCOCC2)n1,,inactive: 10.1%
COc1ccc(-c2noc(CSc3nnc(-c4ccccc4)n3-c3ccc(F)cc3)n2)c(OC)c1,"inconclusive: 35.5 µM [inhibitor, single point]",
Cc1ccccc1C(=O)N1CCc2cc(-c3csc(NC(=O)CN4CCCC4)n3)ccc21,"inconclusive: 12.6 µM [inhibitor, partial curve, poor fit]",

# Molecules from the list above with an aryl thioether with sulfur outside any ring, in the order listed:
Structure (SMILES),Potency,"activity change, negative = inhibition"
c1ccc2[nH]c(SCc3ccc(-c4nnco4)cc3)nc2c1,"inconclusive: 5.62 µM [activator, single point]",
COc1ccc(-c2noc(CSc3nnc(-c4ccccc4)n3-c3ccc(F)cc3)n2)c(OC)c1,"inconclusive: 35.5 µM [inhibitor, single point]",

# Later entries:

Structure (SMILES),Potency,"activity change, negative = inhibition"
Cc1cc2nc(SCCN3CCOCC3)[nH]c2cc1C,"inconclusive: 1.41 µM [activator, partial curve]",
CC(=O)Nc1ccc(NC(=O)CCn2nnc3ccccc32)cc1,"inconclusive: 5.62 µM [activator, full curve]",
Cc1ccc([N+](=O)[O-])cc1-c1ccc(/C=C(\C#N)c2[nH]nc(N)c2C#N)o1,"inconclusive: 10 µM [inhibitor, partial curve, poor fit]",
C=CCOc1ccc(C2NC(=S)NC(c3ccccc3)=C2C(C)=O)cc1OC (stereo not given),,inactive: -6.14% [at 46.1 µM]
COc1ccccc1Cn1c(SCC#N)nc2cc(C(=O)N3CCC4(CC3)OCCO4)ccc2c1=O,,inactive: -28% [at 46.1 µM]
CC(C)CCn1c(CN(C)Cc2ccccc2)nc2c1c(=O)n(C)c(=O)n2C,"inconclusive: 4.11 µM [inhibitor, full curve]",
O=C(CN1C(=O)NC2(CCCCCC2)C1=O)NCc1ccc(F)cc1,"inconclusive: 35.5 µM [activator, single point]",
Cc1ccccc1NC(=O)Nc1ccc2nc(N3CCN(C)CC3)cc(C)c2c1,"inconclusive: 8.91 µM [activator, single point]",
CCCOC(=O)c1ccc2c(c1)C(=O)N(c1ccccc1)C2=O,,inactive: -9.19%
Cn1c(=O)oc2cc(S(=O)(=O)CCC(=O)NCCc3ccccc3)ccc21,"inconclusive: 35.5 µM [activator, single point]",
Cc1cccn2c(=O)c(/C=C(\C#N)c3nc4ccccc4s3)c(Oc3ccc(Br)cc3)nc12,,inactive: 19.5% [at 46.1 µM]
O=C(NCc1ccccc1F)C1CCN(Cc2cc3ccccc3n2Cc2cccc(Cl)c2)CC1,"inconclusive: 35.5 µM [inhibitor, single point]",
CN(CC(=O)Nc1ccc(S(=O)(=O)N2CCCC2)cc1)Cc1cccc(Cl)c1Cl,"inconclusive: 10 µM [inhibitor, partial curve]",
Cc1c(C(=O)OC2CCCCC2)[nH]c2c1C(=O)CC(c1ccccc1Cl)C2 (stereo not given),"inconclusive: 3.16 µM [inhibitor, single point]",
CCN(CC)CC1(O)CCN(C(=O)c2ccc(Cl)c(Cl)c2)CC1,"inconclusive: 35.5 µM [inhibitor, single point]",
Cc1nc2nc(NC(=O)c3ccc(F)cc3)[nH]n2c(=O)c1Cc1ccccc1,,inactive: 2.34% [at 46.1 µM]
Cc1[nH]n(-c2ccc([N+](=O)[O-])cc2)c(=O)c1C=NCCc1c(C)[nH]c2ccccc12,,inactive: 7.59%
O=C1C=C(NCc2ccc(Cl)cc2)CC(c2ccco2)C1 (stereo not given),"inconclusive: 29.1 µM [inhibitor, single point]",
O=C(CCNS(=O)(=O)c1cccc2nonc12)NC1CCCCC1,,inactive: 7.69% [at 46.1 µM]
NC(=O)C1Cc2ccccc2CN1C(=O)c1cccc(Oc2ccccc2)c1 (stereo not given),"inconclusive: 14.1 µM [inhibitor, partial curve, poor fit]",
O=C(CSc1nc2ccccc2n1S(=O)(=O)c1cccc([N+](=O)[O-])c1)NCCc1ccccc1,"inconclusive: 0.794 µM [activator, partial curve, poor fit]",
Cc1[nH]c2ccccc2c1C(C[N+](=O)[O-])c1cccs1 (stereo not given),"inconclusive: 1 µM [inhibitor, full curve, poor fit]",
